Reference: PubChem BioAssay AID493014 (National Center for Advancing Translational Sciences (NCATS), 2011)
Screen size: about 340,000 compounds; about 170 (0.05%) were called active. The shares of active, inactive and inconclusive entries below differ from those in the screen. Calls come from the whole dose curve; as a rule, active = well fitted inhibition curve with a large enough effect in the signal ratio, with a control signal flat (not every such curve was filed as active); inconclusive = small, poorly fitted or top-dose-only effect, or effect the other way, or a change in a side signal; inactive = flat fitted curve, though single readings scatter; the % refers to the signal ratio. Where the call is inconclusive, the potency comes from a doubtful curve fit.

Experiment: qHTS Assay to Find Inhibitors of Chronic Active B-Cell Receptor Signaling;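 for activity change, negative = inhibition: plate controls were basal doxycycline-induced cells for no effect and cells given 10 µM MG132 for full effect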
Conditions: ABC-DLBCL IkBa-CBG/CBR reporter, luminescence ratio (green luciferase fused to IkBa over red control in TMD8 lymphoma cells), 4 h; activity change, negative = inhibition: at 46.1 µM (top of the series)
In short: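 TMD8 ABC-DLBCL cells carrying doxycycline-inducible green luciferase fused to IkappaBalpha plus unfused red luciferase were exposed to compounds (up to 46 uM) for 4 hrs at 37C. Activity came from the overlap-corrected green/red luminescence ratio.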
Potency is the fitted concentration of half-maximal effect.

| Structure (SMILES) | activity change, negative = inhibition | Potency |
| --- | --- | --- |
| CCOC(=O)c1cnc2nc(Cc3ccccc3)[nH]n2c1=O | inconclusive: -16.6% | – |
| COc1ccc(/C=C/C(=O)OCCNC(=O)c2ccncc2)cc1OC | inactive: -0.225% | – |
| COc1ccc2c(C#N)c3ccccn3c2c1 | inactive: 10.3% | – |
| CNc1nnc(SCC(=O)c2c(N)n(C3CC3)c(=O)[nH]c2=O)s1 | inactive: 1.93% | – |
| CCOC(=O)C1CCCN(C(=O)c2ccccc2[N+](=O)[O-])C1 (stereo not drawn) | – | inconclusive: 3.98 µM [falling, full curve] |
| COCCNC(=S)N/N=C(\C)c1ccccc1OC | – | inconclusive: 14.6 µM [falling, partial curve] |
| Cc1ccc(Cn2nc(C)c3cc(C(=O)OCC(N)=O)sc32)cc1 | inconclusive: 6.95% | – |
| COc1ccc(Br)c(C(=O)OCC(=O)NC2CCCCCC2)c1 | – | inconclusive: 23.1 µM [falling, single point] |
| O=C(c1cccc(S(=O)(=O)N2CCOCC2)c1)N1CCN(C/C=C/c2ccccc2)CC1 | inconclusive: -6.26% | – |
| COc1cc(-c2nnc(SCC(=O)N3c4ccccc4Sc4ccccc43)o2)cc(OC)c1OC | inactive: 7.83% | – |
| CC1C2CC(C/C2=N/NC(=O)c2cccs2)C1(C)C (stereo not drawn) | – | inconclusive: 35.5 µM [rising, single point] |
| O=C(c1cc2cc(Br)ccc2o1)N1CCCCC1 | inconclusive: 4.16% | – |
| COc1cc(S(=O)(=O)N2CCn3cccc3C2C)ccc1NC(C)=O (stereo not drawn) | inactive: 0.213% | – |
| CN(C(=O)COC(=O)CNC(=O)c1ccccc1F)C1CCCCC1 | inactive: 0.178% | – |
| C=CCc1c(C)nc(SC)nc1Nc1ccccc1 | inconclusive: -6.29% | – |
| Nn1c(SCC(=O)Nc2nccs2)nnc1C1CC1 | inconclusive: 2.96% | – |
| CC[C@]12c3[nH]c4cc(-c5ccco5)ccc4c3CCN1C(=O)[C@@H](CC(=O)NCc1cccc(C(F)(F)F)c1)C[C@@H]2C(=O)N1CCN(C(=O)C2CC2)CC1 | inactive: -19.8% | – |
| CCCn1c(NC(=O)C23CC4CC(CC(O)(C4)C2)C3)nc2ccccc21 | inconclusive: 1.81% | – |
| COc1ccc2c(C)cc(SCC(=O)Nc3cc(C(N)=O)cc(C(N)=O)c3)nc2c1 | inconclusive: 9.55% | – |
| CC(=O)c1ccc2c(c1)N(CCCN1CCC(CCO)CC1)c1ccccc1S2 | inconclusive: -26.1% | – |
| CCOC(=O)c1sc2nc(C)n(N)c(=O)c2c1C | inactive: 2.39% | – |
| O=C(O)c1cccc(Nc2ccc([N+](=O)[O-])c3nonc23)c1 | inactive: 3.71% | – |
| COc1ccc2c(c1)OC[C@H]1[C@H]2N2C(=O)c3cc(Cl)ccc3NC(=O)[C@@]2(C)[C@H]1c1ccccc1 | inconclusive: 13.3% | – |
| O=C(Cc1ccc([N+](=O)[O-])cc1)OCc1c(F)cccc1Cl | inconclusive: 2.79% | – |
| COc1ccc(CN2CCN(C(=O)c3ccc(S(=O)(=O)NCc4ccco4)cc3)CC2)cc1F | inactive: -19.7% | – |
| O=C(CN1C(=O)S/C(=C\c2ccccc2Cl)C1=O)NCCCn1ccnc1 | – | inconclusive: 11.2 µM [falling, partial curve] |
| O=C(N/N=C/c1cccc2nccnc12)c1ccncc1 | – | inconclusive: 17.8 µM [falling, partial curve, poor fit] |

In the list so far, 3 have a furan ring, fused or not:

| Structure (SMILES) | activity change, negative = inhibition | Potency |
| --- | --- | --- |
| O=C(c1cc2cc(Br)ccc2o1)N1CCCCC1 | inconclusive: 4.16% | – |
| CC[C@]12c3[nH]c4cc(-c5ccco5)ccc4c3CCN1C(=O)[C@@H](CC(=O)NCc1cccc(C(F)(F)F)c1)C[C@@H]2C(=O)N1CCN(C(=O)C2CC2)CC1 | inactive: -19.8% | – |
| COc1ccc(CN2CCN(C(=O)c3ccc(S(=O)(=O)NCc4ccco4)cc3)CC2)cc1F | inactive: -19.7% | – |

Additional entries

| Structure (SMILES) | activity change, negative = inhibition | Potency |
| --- | --- | --- |
| COc1ccc(-c2[nH]c(-c3ccc4c(c3)OCO4)nc2-c2ccccc2)cc1 | inconclusive: -6.49% | – |
| Oc1ccc(N=Nc2ccc3c(c2)OCCO3)c2ncccc12 | – | inconclusive: 28.2 µM [falling, single point] |
| Cc1ccc(C(=O)OCC(=O)Nc2ccccc2Cl)c(O)c1 | – | inconclusive: 2.82 µM [falling, full curve] |
| COc1cccc(Nc2sc(C(=O)c3ccc(Cl)cc3)c(N)c2C(=O)NCCc2ccc(OC)c(OC)c2)c1 | inconclusive: 10.1% | – |
| COc1ccc(NC(=O)CNC(=O)c2cccs2)cc1Cl | inconclusive: -3.24% | – |
| O=C(c1ccc2c(c1)N(Cc1ccccc1)CCS2)N1CCCCC1 | inactive: 9.06% | – |
| C=CCC(C=C)S(=O)(=O)c1ccc(C)cc1 (stereo not drawn) | inconclusive: 1.69% | – |
| COc1ccc(CCN2C(=O)C3C(C2=O)C2C=CC3C23CC3)cc1OC (stereo not drawn) | inconclusive: -4.25% | – |
| CCCCc1ccc(NC(=O)Nc2cnccn2)cc1 | inconclusive: 2.48% | – |
| CCc1ccc(NC(=O)c2ccc(F)c(S(=O)(=O)NCCc3ccc(OC)c(OC)c3)c2)cc1 | – | inconclusive: 8.91 µM [falling, partial curve, poor fit] |
| O=C1c2ccc([N+](=O)[O-])cc2C(=O)N1Cc1cccnc1 | inactive: -0.0238% | – |
| CC(/C=C/c1ccccc1)=N\NC(=O)CCc1ccccc1 | inactive: -1.99% | – |
| COc1ccc(CCNC(=O)c2noc(C)c2[N+](=O)[O-])cc1OC | inactive: 0.896% | – |
| COCCCN1CN(Cc2ccccc2)CNC1=S | inactive: 1.82% | – |
| O=C(O)c1ccc(-n2nncc2-c2ccco2)cc1 | inconclusive: 0.783% | – |
| Cc1cccc(/C=C2/S/C(=N/N=C3\CC4CCC3(C)C4(C)C)NC2=O)c1 (stereo not drawn) | inconclusive: -5.28% | – |
| COc1cccc(Cn2c(NCc3ccco3)nc3c2c(=O)n(C)c(=O)n3C)c1 | inactive: 2.8% | – |
| Cc1ccccc1-n1c(=O)/c(=C\c2ccco2)s/c1=C(/C#N)C(=O)Nc1ccccc1 | inconclusive: 7.5% | – |
| O=C(NC1CCC(O)CC1)c1ccc(-c2ccc(Cl)cc2)o1 (stereo not drawn) | inactive: -21.4% | – |
| O=C(NCc1cccs1)C(=O)c1cn(CC(=O)N2CCOCC2)c2ccccc12 | – | inconclusive: 17.8 µM [falling, partial curve] |
| Cc1ccc(N2C(=O)c3ccc(C(=O)O)cc3C2=O)cc1C | – | inconclusive: 20.6 µM [rising, partial curve, poor fit] |
| CCOC(=O)c1c(NC(=O)CSc2nnc(-c3ccccc3C)n2C)sc(C(C)=O)c1C | – | inconclusive: 5.17 µM [falling, single point] |
| CCC1CCc2sc(C(=O)NCC(c3ccc(OC)cc3)N3CCOCC3)cc2C1 (stereo not drawn) | inconclusive: 1.68% | – |
| CCCc1nnc(NC(=O)NCCN2C(=O)C3C4C=CC(C4)C3C2=O)s1 (stereo not drawn) | inconclusive: 3.08% | – |
| CN(Cc1nc(C(c2ccccc2)c2ccccc2)no1)CC1COCCO1 (stereo not drawn) | – | inconclusive: 22.4 µM [falling, partial curve] |
| Cc1ccc(S(=O)(=O)Nc2ccccc2C(=O)OC(C)C(=O)Nc2ccc3ccccc3c2)cc1[N+](=O)[O-] (stereo not drawn) | inconclusive: 5.64% | – |
